The results in this text go back to publication PMC3145672, “X-Ray Structure Reveals a New Class and Provides Insight into Evolution of Alkaline Phosphatases” (PLoS ONE, 2011).

No constants are given. Whether binding was seen depends on the method and setting.

The target in assay [1] is alkaline phosphatase from Sphingomonas sp. strain BSAR-1 (SPAP) (Sphingomonas sp. strain BSAR-1) (UniProt A1YYW7). As to the kind of experiment: SEC; Superdex 200 10/300 GL, 20 mM Tris pH 8.0, 150 mM NaCl, 0.5 ml per minute; standards cytochrome-c, carbonic anhydrase, bovine serum albumin; both purified.
Assay [2] shares this target. In words: crystal structure; native SPAP crystals, space group P4(1)2(1)2, one molecule per asymmetric unit, dimer seen through crystal contacts; grown at 298 K in 1.6 M ammonium sulfate, 10% dioxane, 0.1 M MES pH 6.5; both purified.

B1: alkaline phosphatase from Sphingomonas sp. strain BSAR-1 (SPAP) (enzyme, UniProt A1YYW7 20-559)
chain: QSPAPAAAPAPAARSIAATPPKLIVAISVDQFSADLFSEYRQYYTGGLKRLTSEGAVFPRGYQSHAATETCPGHSTILTGSRPSRTGIIANNWFDLDAKREDKNLYCAEDESQPGSSSDKYEASPLHLKVPTLGGRMKAANPATRVVSVAGKDRAAIMMGGATADQVWWLGGPQGYVSYKGVAPTPLVTQVNQAFAQRLAQPNPGFELPAQCVSKDFPVQAGNRTVGTGRFARDAGDYKGFRISPEQDAMTLAFAAAAIENMQLGKQAQTDIISIGLSATDYVGHTFGTEGTESCIQVDRLDTELGAFFDKLDKDGIDYVVVLTADHGGHDLPERHRMNAMPMEQRVDMALTPKALNATIAEKAGLPGKKVIWSDGPSGDIYYDKGLTAAQRARVETEALKYLRAHPQVQTVFTKAEIAATPSPSGPPESWSLIQEARASFYPSRSGDLLLLLKPRVMSIPEQAVMGSVATHGSPWDTDRRVPILFWRKGMQHFEQPLGVETVDILPSLAALIKLPVPKDQIDGRCLDLVAGKDDSCAGQ
For the molecule B1, the binding result in assay [1] and in assay [2] was “no binding” in each case.
